Measured values: publication PMC7877769
Results are given in words; binding and its absence hold for the method and conditions named. In cells and extracts the contact can be indirect. Sequences can lack the tags named with a protein.

Key:
[1] = target: T1, TgQCR9-FLAG (Toxoplasma gondii) (UniProt S7UVH4); assay: co-IP; parasite samples solubilized in 1% (v/v) Triton X-100; anti-HA affinity matrix or anti-FLAG M2 affinity gel; Total, Unbound and Bound fractions on SDS-PAGE, western blots with anti-HA, anti-FLAG and anti-TgTom40
T1 sequence: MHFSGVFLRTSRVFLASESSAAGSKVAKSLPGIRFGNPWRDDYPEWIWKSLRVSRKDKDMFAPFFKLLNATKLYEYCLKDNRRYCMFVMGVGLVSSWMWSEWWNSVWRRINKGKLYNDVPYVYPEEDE

[2] = target: T2, TgQCR11-FLAG (Toxoplasma gondii) (UniProt S7UR33); assay: as above
T2 sequence: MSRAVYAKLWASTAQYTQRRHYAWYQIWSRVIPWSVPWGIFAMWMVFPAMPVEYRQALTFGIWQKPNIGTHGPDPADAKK

TgTom40 (Toxoplasma gondii)
binding [1]: no binding
binding [2]: no binding
